These results are taken from the supplement of paper PMC12819154, “High-throughput peptide-centric local stability assay extends protein–ligand identification to membrane proteins, tissues and bacteria” (Nature Structural & Molecular Biology, 2025).

Chains of the proteins cited; added tags and fusions are not shown. Lines headed by an entry give the natural chain unless they say otherwise; changes in a name come on top.
UniProt Q3TJD7, whole entry: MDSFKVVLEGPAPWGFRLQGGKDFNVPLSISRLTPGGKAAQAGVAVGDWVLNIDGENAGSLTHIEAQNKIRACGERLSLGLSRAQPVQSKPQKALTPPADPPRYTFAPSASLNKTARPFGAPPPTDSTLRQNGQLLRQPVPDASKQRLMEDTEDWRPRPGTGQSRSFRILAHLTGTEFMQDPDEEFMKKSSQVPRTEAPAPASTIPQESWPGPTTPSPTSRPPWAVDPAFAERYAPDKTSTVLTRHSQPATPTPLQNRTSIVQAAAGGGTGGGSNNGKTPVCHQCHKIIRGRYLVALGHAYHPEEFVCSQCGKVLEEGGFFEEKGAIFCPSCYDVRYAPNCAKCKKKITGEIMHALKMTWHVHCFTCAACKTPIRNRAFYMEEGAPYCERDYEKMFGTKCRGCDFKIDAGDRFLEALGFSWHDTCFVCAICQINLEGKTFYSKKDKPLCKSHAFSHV
UniProt Q3U0D9: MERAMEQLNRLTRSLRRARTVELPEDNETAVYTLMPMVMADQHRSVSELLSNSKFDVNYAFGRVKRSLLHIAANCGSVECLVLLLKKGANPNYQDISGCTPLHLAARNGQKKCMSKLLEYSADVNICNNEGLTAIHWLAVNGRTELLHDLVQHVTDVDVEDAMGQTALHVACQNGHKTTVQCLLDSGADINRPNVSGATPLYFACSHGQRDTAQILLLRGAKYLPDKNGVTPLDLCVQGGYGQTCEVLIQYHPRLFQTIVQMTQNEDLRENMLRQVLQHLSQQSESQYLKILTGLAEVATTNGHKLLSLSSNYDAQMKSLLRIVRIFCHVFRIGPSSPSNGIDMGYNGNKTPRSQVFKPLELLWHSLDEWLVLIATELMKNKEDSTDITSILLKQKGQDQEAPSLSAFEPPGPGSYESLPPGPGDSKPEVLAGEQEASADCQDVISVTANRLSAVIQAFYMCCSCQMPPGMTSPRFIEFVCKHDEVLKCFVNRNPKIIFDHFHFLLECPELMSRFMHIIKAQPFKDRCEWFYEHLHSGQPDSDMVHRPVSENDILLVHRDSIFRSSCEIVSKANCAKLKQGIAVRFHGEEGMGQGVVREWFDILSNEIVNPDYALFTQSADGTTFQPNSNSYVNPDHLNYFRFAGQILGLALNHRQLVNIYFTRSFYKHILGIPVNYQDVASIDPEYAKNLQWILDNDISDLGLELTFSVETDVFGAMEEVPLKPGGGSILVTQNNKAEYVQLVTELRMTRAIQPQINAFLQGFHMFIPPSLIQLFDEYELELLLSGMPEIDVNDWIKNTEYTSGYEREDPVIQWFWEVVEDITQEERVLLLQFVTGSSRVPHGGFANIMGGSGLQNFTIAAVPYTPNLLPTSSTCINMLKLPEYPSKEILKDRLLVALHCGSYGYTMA
UniProt Q3U1G5: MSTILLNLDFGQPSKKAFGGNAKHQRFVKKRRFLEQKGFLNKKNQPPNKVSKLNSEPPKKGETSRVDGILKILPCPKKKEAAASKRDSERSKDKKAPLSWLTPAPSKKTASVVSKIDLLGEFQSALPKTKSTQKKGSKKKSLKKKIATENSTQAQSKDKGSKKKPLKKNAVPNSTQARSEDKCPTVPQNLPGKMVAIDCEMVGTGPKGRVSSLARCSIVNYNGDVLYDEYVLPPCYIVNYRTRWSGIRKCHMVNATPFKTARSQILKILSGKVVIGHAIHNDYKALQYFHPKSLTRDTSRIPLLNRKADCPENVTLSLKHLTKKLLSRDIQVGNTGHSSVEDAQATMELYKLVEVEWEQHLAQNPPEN
UniProt Q1H9T6: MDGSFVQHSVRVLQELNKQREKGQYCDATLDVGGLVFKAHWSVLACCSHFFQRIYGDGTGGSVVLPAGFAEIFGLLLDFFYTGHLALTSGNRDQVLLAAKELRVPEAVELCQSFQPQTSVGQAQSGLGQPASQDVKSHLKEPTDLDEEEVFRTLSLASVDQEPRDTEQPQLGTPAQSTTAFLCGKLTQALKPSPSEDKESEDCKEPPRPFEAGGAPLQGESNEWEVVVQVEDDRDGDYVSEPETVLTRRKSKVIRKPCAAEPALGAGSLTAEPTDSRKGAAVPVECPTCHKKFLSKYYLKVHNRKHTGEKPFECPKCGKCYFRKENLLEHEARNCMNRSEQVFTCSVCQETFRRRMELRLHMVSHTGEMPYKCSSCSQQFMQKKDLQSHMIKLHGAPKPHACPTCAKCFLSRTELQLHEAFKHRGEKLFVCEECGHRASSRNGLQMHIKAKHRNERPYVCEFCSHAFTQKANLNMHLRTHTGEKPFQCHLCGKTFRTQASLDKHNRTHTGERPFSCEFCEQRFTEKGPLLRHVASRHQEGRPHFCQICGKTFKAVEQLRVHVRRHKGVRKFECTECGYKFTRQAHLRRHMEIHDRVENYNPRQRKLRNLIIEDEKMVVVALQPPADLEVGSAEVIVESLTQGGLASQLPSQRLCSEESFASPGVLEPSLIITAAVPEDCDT
UniProt Q3U1V6: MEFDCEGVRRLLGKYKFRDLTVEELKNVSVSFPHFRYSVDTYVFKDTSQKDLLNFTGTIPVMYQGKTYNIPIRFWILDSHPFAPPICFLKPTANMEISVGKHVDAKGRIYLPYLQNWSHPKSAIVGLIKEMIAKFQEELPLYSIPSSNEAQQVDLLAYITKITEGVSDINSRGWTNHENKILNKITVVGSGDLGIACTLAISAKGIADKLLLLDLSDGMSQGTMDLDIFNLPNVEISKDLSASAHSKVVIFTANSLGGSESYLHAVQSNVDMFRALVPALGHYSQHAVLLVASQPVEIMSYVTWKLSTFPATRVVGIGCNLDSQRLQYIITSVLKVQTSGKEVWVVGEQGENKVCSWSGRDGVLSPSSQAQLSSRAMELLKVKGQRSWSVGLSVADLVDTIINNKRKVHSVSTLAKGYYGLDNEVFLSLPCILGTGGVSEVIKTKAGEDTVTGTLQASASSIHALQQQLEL
UniProt Q03265: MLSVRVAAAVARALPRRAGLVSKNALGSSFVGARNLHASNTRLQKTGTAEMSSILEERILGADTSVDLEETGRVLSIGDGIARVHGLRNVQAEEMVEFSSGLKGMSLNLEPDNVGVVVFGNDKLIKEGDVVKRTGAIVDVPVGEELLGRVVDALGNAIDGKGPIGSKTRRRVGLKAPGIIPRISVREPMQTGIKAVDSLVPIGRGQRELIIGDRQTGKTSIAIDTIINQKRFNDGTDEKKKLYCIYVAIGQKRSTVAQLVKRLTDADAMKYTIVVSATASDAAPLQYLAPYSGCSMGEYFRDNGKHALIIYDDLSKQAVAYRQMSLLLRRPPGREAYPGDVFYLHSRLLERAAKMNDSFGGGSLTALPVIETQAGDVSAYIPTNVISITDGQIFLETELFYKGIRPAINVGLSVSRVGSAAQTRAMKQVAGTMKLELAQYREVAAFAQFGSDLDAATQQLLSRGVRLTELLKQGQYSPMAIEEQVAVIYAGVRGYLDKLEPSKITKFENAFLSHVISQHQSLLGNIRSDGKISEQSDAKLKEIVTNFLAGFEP
UniProt Q04857: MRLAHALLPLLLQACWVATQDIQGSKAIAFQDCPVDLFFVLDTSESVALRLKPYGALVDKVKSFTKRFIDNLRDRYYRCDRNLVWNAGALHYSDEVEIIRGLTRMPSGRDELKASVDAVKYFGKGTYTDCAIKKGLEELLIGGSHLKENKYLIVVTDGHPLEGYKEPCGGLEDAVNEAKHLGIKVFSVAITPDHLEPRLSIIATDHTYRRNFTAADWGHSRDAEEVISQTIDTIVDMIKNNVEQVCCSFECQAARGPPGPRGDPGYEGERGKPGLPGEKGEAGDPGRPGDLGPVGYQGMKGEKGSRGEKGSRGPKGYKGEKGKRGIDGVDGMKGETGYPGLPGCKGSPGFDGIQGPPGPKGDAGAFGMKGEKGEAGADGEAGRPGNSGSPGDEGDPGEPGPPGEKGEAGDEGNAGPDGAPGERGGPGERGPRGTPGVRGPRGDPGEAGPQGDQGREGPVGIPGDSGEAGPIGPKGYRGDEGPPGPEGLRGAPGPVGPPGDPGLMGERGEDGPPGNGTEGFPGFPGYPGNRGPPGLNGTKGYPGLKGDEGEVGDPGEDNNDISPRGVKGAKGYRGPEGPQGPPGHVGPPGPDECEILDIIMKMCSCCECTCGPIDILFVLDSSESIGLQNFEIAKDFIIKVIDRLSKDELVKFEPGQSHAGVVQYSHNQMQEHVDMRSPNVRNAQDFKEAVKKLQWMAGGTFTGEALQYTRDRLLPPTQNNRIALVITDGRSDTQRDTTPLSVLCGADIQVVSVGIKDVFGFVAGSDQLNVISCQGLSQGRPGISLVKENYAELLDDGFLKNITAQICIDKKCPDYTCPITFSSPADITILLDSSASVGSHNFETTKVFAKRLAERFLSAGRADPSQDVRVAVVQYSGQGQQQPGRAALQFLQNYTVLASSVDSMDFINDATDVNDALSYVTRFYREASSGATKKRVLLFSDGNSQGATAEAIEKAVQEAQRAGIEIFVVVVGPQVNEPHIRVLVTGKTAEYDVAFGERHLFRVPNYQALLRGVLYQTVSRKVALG
UniProt Q0VG62: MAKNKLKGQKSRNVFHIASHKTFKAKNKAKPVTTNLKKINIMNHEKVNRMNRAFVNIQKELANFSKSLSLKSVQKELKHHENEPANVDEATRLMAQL
UniProt Q05BC3: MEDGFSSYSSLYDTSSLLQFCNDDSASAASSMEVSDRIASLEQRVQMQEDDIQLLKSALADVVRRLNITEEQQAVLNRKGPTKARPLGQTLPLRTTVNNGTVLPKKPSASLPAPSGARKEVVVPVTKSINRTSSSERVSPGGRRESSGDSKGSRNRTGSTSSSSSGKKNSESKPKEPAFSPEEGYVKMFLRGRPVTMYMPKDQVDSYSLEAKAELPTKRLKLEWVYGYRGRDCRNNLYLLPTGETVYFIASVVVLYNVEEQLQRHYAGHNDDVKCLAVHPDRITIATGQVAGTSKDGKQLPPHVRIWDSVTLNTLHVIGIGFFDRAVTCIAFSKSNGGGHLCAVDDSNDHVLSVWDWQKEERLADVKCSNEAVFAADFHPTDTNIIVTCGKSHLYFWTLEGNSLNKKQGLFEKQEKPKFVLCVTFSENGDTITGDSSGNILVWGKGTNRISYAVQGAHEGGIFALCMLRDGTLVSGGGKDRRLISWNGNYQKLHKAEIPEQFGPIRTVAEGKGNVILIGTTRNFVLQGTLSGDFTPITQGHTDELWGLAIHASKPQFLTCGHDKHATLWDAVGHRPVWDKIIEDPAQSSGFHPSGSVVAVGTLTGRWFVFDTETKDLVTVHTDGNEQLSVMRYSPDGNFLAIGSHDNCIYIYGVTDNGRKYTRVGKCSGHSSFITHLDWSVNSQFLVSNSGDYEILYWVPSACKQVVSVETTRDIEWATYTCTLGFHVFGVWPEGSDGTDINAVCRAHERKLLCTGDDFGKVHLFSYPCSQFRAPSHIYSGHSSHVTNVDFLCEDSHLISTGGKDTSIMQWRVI
UniProt Q3TEI4: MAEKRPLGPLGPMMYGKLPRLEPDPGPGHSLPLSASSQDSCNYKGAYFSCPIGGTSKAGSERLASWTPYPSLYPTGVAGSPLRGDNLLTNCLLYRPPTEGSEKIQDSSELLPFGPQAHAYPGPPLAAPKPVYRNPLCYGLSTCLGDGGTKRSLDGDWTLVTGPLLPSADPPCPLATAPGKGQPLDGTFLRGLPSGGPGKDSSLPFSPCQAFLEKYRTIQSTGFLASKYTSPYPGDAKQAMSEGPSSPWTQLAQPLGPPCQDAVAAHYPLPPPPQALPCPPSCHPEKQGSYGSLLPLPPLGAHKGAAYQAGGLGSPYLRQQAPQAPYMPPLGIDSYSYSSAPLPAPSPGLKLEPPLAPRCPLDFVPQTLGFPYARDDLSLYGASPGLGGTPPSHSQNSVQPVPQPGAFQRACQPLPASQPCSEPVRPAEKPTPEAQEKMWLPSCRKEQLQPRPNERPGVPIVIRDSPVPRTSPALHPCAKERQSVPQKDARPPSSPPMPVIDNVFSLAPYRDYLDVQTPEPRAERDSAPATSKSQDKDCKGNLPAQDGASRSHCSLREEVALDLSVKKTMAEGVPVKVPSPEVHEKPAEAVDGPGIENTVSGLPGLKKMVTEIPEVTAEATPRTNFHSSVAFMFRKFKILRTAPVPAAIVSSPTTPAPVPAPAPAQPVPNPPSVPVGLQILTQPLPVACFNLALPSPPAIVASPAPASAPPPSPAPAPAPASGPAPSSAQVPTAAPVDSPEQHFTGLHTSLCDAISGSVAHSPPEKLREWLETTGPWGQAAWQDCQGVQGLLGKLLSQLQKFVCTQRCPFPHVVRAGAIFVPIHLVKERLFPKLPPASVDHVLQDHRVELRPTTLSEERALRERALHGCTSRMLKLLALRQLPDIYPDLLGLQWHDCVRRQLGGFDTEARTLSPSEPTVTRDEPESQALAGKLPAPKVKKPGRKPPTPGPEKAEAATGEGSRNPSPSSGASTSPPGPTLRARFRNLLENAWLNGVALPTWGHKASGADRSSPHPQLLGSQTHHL

The list shows a part of the results. Most entries show no effect beyond the scatter of the controls.

Compound in the experiment: CN[C@@H]1C[C@H]2O[C@@](C)([C@@H]1OC)n1c3ccccc3c3c4c(c5c6ccccc6n2c5c31)C(=O)NC4 [staurosporine]
The experiment in a line: log2 fold change of tryptic peptide abundance, ligand vs vehicle (limited proteolysis) (log2 ratio); higher = more trypsin-susceptible (destabilized). The following applies: ligand concentration: 20 uM; sample: mouse liver crude lysate; replicate design: treated separately.
For “UniProt Q3TJD7 (peptide sequence: ILAHLTGTEFMQDPDEEFMKK, peptide start residue: 169)”, the log2 fold change is -0.188.

Turning to “UniProt Q3U0D9 (peptide sequence: DTAQILLLR, peptide start residue: 211)”, the log2 fold change turned out to be 0.158.

In the case of “UniProt Q3U1G5 (peptide sequence: APLSWLTPAPSKK, peptide start residue: 96)”, the log2 fold change was -0.136.

For the target “UniProt Q1H9T6 (peptide sequence: TLSLASVDQEPR, peptide start residue: 153)”, the log2 fold change was -0.119.

For the target “UniProt Q3U1V6 (peptide sequence: LQYIITSVLK, peptide start residue: 326)”, the log2 fold change is -0.235.

As to “UniProt Q03265 (peptide sequence: SDGKISEQSDAKLK, peptide start residue: 528)”, the log2 fold change is -0.132.

As to “UniProt Q04857 (peptide sequence: LSIIATDHTYRR, peptide start residue: 199)”, the log2 fold change stood at 0.355.

On to “UniProt Q3U0M1 (peptide sequence: VESRPTNPSEGSK, peptide start residue: 832)”, for which the log2 fold change was -0.0806.

Consider “UniProt Q0VG62 (peptide sequence: KINIMNHEK, peptide start residue: 38)”, for which the log2 fold change is -0.341.

Turning to “UniProt Q05BC3 (peptide sequence: KPSASLPAPSGAR, peptide start residue: 106)”, the log2 fold change was -0.188.

Turning to “UniProt Q3TEI4 (peptide sequence: SSPHPQLLGSQTHHL, peptide start residue: 1009)”, the log2 fold change was -0.523.
